This passage reports binding results from PMC5424413.

By UniProt entry, the sequences of proteins in these tests, tags left out.
UniProt Q15436: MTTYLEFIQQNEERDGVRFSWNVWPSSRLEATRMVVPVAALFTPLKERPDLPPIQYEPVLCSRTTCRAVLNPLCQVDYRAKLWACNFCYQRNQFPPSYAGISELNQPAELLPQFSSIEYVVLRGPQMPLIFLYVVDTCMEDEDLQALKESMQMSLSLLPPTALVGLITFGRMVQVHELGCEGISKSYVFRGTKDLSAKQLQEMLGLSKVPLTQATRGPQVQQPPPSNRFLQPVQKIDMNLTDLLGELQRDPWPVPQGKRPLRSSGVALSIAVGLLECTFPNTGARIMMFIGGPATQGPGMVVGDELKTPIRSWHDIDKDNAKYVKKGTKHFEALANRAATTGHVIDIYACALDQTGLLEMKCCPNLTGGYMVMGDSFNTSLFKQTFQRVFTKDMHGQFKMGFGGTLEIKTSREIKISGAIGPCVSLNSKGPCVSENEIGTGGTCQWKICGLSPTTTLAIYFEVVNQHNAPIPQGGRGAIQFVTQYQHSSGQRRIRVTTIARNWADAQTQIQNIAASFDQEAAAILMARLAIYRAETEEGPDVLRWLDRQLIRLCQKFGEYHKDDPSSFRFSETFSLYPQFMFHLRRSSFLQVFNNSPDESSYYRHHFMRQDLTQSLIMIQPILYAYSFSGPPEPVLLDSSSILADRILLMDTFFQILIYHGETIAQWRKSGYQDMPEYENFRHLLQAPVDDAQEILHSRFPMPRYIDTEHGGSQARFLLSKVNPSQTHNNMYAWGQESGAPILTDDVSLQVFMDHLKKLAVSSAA
UniProt Q8WVT3: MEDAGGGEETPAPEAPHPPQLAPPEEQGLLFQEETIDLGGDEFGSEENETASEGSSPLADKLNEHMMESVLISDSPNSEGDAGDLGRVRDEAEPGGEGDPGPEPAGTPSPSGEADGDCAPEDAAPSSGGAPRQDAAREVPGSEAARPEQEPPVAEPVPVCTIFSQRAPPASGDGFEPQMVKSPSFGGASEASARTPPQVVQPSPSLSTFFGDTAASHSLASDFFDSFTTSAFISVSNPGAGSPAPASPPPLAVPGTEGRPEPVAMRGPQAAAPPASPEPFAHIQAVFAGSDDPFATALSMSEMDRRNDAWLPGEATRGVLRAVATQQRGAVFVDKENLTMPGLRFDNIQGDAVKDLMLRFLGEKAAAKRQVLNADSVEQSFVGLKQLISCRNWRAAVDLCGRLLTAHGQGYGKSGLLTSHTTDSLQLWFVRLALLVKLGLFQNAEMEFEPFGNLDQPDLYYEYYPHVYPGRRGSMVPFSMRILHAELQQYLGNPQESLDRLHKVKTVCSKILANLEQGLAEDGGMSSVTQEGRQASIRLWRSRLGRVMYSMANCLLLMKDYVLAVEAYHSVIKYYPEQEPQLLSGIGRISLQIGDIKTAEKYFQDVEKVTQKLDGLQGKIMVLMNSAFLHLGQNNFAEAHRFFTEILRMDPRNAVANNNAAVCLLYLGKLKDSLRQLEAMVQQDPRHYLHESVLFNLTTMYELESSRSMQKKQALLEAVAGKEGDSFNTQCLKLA

Experiment [1] concerns the target T1, Myc-ULK1 wild type (UniProt O75385).
T1 sequence: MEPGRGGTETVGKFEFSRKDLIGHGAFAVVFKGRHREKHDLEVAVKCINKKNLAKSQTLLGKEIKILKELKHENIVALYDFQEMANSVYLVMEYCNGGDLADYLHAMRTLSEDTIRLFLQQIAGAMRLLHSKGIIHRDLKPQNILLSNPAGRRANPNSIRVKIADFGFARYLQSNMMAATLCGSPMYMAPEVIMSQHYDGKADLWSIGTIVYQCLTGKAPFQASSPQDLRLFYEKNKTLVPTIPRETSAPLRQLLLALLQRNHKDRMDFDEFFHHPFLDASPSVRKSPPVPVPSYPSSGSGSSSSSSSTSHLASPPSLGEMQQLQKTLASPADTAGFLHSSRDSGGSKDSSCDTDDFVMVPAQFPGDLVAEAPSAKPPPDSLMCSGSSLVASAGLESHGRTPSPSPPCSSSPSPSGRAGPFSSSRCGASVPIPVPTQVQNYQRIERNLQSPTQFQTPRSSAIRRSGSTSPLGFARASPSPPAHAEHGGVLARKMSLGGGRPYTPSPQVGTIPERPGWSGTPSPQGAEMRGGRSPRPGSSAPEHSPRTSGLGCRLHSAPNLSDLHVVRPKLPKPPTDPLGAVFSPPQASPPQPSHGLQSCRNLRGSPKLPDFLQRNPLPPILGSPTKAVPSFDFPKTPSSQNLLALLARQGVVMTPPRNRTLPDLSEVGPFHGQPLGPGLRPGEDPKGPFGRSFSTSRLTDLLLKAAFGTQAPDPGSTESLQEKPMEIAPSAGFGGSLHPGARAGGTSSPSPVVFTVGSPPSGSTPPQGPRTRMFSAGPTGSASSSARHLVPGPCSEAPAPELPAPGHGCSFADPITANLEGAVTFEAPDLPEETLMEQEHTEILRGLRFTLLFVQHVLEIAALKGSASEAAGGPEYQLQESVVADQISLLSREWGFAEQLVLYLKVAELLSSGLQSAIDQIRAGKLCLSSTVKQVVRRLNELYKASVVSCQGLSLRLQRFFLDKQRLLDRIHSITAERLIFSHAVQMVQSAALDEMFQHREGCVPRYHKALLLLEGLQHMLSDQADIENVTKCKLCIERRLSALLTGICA
Kind of experiment: co-IP; Myc-ULK1 WT co-transfected pairwise with GFP-tagged COPII components in HEK293T; ULK1 immunoprecipitated by anti-Myc, blot with anti-GFP.

Experiment [2] addresses T1, Myc-ULK1 wild type. In words: co-IP; Myc-ULK1 and FLAG-FIP200 co-transfected with GFP fusion constructs; Myc-ULK1 immunoprecipitated with anti-c-Myc, GFP fusions detected; cells in complete growth medium or deprived of amino acids; RIPA (150 mM NaCl, 20 mM Tris pH 8.0, 0.01% NP-40), 4 °C, 3 h.
In experiment [3] the target is T2, Myc-ULK1 wild type, O75385.
T2 chain: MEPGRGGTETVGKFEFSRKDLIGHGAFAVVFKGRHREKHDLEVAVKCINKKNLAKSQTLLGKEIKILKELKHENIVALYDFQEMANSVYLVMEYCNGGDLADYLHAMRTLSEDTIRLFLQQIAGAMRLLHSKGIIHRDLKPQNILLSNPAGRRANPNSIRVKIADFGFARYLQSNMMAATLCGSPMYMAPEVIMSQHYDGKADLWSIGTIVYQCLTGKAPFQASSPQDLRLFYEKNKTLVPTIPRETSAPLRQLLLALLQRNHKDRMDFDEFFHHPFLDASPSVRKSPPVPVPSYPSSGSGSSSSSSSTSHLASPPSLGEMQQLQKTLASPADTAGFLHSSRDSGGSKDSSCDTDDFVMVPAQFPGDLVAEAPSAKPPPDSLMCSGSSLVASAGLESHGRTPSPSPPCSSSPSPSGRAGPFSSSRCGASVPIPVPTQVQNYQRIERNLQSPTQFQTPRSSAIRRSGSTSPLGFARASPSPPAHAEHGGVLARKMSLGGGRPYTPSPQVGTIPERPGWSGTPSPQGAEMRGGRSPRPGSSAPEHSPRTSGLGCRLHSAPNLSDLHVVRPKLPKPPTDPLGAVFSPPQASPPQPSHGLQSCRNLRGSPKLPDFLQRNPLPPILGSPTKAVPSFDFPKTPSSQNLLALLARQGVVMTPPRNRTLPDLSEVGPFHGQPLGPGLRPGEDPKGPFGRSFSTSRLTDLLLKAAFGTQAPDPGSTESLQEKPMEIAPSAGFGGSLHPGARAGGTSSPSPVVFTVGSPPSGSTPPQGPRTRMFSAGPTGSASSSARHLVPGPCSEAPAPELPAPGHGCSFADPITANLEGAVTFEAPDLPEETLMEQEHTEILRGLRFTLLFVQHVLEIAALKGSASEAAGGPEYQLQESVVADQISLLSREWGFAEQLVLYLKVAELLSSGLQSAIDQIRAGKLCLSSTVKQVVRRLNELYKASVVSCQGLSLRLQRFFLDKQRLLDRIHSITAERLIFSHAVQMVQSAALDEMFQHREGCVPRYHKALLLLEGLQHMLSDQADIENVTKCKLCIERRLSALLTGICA
Kind of experiment: co-IP; Myc-ULK1 WT co-transfected pairwise with GFP-tagged COPII components in HEK293T; ULK1 immunoprecipitated by anti-Myc, blot with anti-GFP. To be noted: remark: other sources report otherwise.

No constants are given. Whether binding was seen depends on the method and setting. Binding seen in cells or lysates may run through a third protein. Some results given as binding are weak or reduced against the parent protein; the word gives no strength. Tags and fused reporters may be left off the sequences shown.

GFP-Sec23A (from UniProt Q15436 1-765): the binding result with Myc-ULK1 wild type [1] and in the experiment with Myc-ULK1 wild type [2] was “binds” in each case.
As for “GFP-TRAPPC12 (from UniProt Q8WVT3 1-735)”, in the experiment with Myc-ULK1 wild type [2], the binding result was “no binding”.

B1: GFP-Sec31A, O94979 1-1220 (protein)
chain: MKLKEVDRTAMQAWSPAQNHPIYLATGTSAQQLDATFSTNASLEIFELDLSDPSLDMKSCATFSSSHRYHKLIWGPYKMDSKGDVSGVLIAGGENGNIILYDPSKIIAGDKEVVIAQNDKHTGPVRALDVNIFQTNLVASGANESEIYIWDLNNFATPMTPGAKTQPPEDISCIAWNRQVQHILASASPSGRATVWDLRKNEPIIKVSDHSNRMHCSGLAWHPDVATQMVLASEDDRLPVIQMWDLRFASSPLRVLENHARGILAIAWSMADPELLLSCGKDAKILCSNPNTGEVLYELPTNTQWCFDIQWCPRNPAVLSAASFDGRISVYSIMGGSTDGLRQKQVDKLSSSFGNLDPFGTGQPLPPLQIPQQTAQHSIVLPLKKPPKWIRRPVGASFSFGGKLVTFENVRMPSHQGAEQQQQQHHVFISQVVTEKEFLSRSDQLQQAVQSQGFINYCQKKIDASQTEFEKNVWSFLKVNFEDDSRGKYLELLGYRKEDLGKKIALALNKVDGANVALKDSDQVAQSDGEESPAAEEQLLGEHIKEEKEESEFLPSSGGTFNISVSGDIDGLITQALLTGNFESAVDLCLHDNRMADAIILAIAGGQELLARTQKKYFAKSQSKITRLITAVVMKNWKEIVESCDLKNWREALAAVLTYAKPDEFSALCDLLGTRLENEGDSLLQTQACLCYICAGNVEKLVACWTKAQDGSHPLSLQDLIEKVVILRKAVQLTQAMDTSTVGVLLAAKMSQYANLLAAQGSIAAALAFLPDNTNQPNIMQLRDRLCRAQGEPVAGHESPKIPYEKQQLPKGRPGPVAGHHQMPRVQTQQYYPHGENPPPPGFIMHGNVNPNAAGQLPTSPGHMHTQVPPYPQPQPYQPAQPYPFGTGGSAMYRPQQPVAPPTSNAYPNTPYISSASSYTGQSQLYAAQHQASSPTSSPATSFPPPPSSGASFQHGGPGAPPSSSAYALPPGTTGTLPAASELPASQRTGPQNGWNDPPALNRVPKKKKMPENFMPPVPITSPIMNPLGDPQSQMLQQQPSAPVPLSSQSSFPQPHLPGGQPFHGVQQPLGQTGMPPSFSKPNIEGAPGAPIGNTFQHVQSLPTKKITKKPIPDEHLILKTTFEDLIQRCLSSATDPQTKRKLDDASKRLEFLYDKLREQTLSPTITSGLHNIARSIETRNYSEGLTMHTHIVSTSNFSETSAFMPVLKVVLTQANKLGV
Turning to B1, in experiment [3], the binding result was “no binding”.
